Results of single-concentration screens

Source: ChEMBL document CHEMBL3988442, “University of Dundee, Small-Polar-MMV Screening Library” (2021).

Results are given as percent effect.
The controls that fix the scale are not given in the record; negative values are as filed.
The compounds are a random part of those screened.
A dash means the value is not listed here; it may have been measured.

T. brucei: 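Whole-parasite assay of Trypanosoma brucei over 72 hours; the read-out is not stated. Compounds at 30 µM. The record gives no direction; compounds that gave an IC50 in retests scored well above the rest, so higher reads as stronger inhibition. Values scatter widely below zero; nearly all retest evidence comes from the higher of the two concentrations used. Of about 64,000 compounds tested this way, about 940 (1.5%) reached 50% or more in at least one test.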
Toxoplasma: 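Assay of Toxoplasma gondii numbers, read through their beta-galactosidase reporter with a colour substrate. Concentration: 10 µM. Higher reads as fewer parasites (inferred from which compounds were picked for retests). Of about 67,000 compounds tested this way, about 260 (0.38%) reached 50% or more in at least one test.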

SMILES,T. brucei,Toxoplasma
COc1cccc(C2CCCN2C(=O)c2ccc(=O)n(C)c2)c1 (configuration not stated),-0.5057,0.6351
CC(C)(O)CCc1cccc(C(=O)N2CCC[C@H]2C(N)=O)c1,2.338,-9.8
[H][C@]12CC[C@@]3(N=C(CC)NC3=O)[C@@]1([H])CN(C(=O)NCc1cccc(F)c1)C2,34.17,-3.235
Cc1c(CN2CCOCC2)c(O)n(CCO)c(=O)c1C#N,-30.57,4.273
CC(=O)N1CCN([C@@H]2CN(C(=O)c3ccccc3)C[C@H]2O)CC1,-,14.08
CCc1cc(CNC(=O)Nc2cc(F)cc(N3CCCC3)c2)on1,22.12,-3.845
NC(=O)Cn1nc(-c2ccccc2F)ccc1=O,-54.23,-22.49
CC(C)N1CC2(CCCN(Cc3noc(C4CCCC4)n3)C2)CCC1=O (configuration not stated),-11.56,0.2758
Cn1cc(C2COC3(CCN(C(=O)Cc4ccccc4)CC3)C2)cn1 (configuration not stated),-13.75,-3.982
COCc1nn(C(C)C)c2c1CCN(Cc1ccc(C)o1)C2.O=C(O)C(F)(F)F,-16.49,11.46
Cn1nc(C2CN(C(=O)c3ccncc3)C2)c2nccnc21,-2.759,20.5
CCn1c(CN2CCN(CC(N)=O)CC2)nc2c(F)cccc21,2.714,-7.481
Cc1cncc(C(=O)N2CCCC(O)(CO)C2)c1 (configuration not stated),-9.429,4.59
CC(C)NC(=O)C1(Cc2ccccc2-c2ccccc2)CCCNC1 (configuration not stated),-11.23,-0.4316
O=C(O)C1CCN(C(=O)CCn2ccc3cc(Br)ccc32)CC1,-22.06,36.74
N#Cc1cccc(CN2C(=O)c3ccccc3CS2(=O)=O)c1,-36.86,16.69
CCn1cnnc1C1CCN(C(=O)CC(C)n2cccc2)CC1 (configuration not stated),-41.2,10
Cc1ccc2c(c1)CN(CC(=O)NCCc1ccc(F)cc1)CC(C)O2 (configuration not stated),-61.7,-5.393
O=C(NCCO)Nc1ccc(Br)c(F)c1,-56.61,-4.735
CCC(C)(C)C(=O)NCCCOC1CCOC1 (configuration not stated),-72.63,-3.138
CN(C)c1cc2c(nn1)CCN(C(=O)Cc1ccc3c(c1)CCO3)C2,13.9,0.5882
C=C(C)CN(CC)C(=O)c1cc(C)ccc1NS(C)(=O)=O,-41.17,14.08
CC1CCN(C(=O)CSCc2noc(C(C)C)n2)CC1,-278.4,-5.247
O=C(c1cnc(O)c(Cl)c1)N1CCCC(c2nccs2)C1 (configuration not stated),-2.539,14.96
O=C(O)C(F)(F)F.[H][C@]12CCCN(Cc3nccs3)[C@@]1([H])CN(C(=O)c1ccco1)C2,20.08,-1.962
[H][C@@]12CCN(C(=O)Cc3ccccc3C)C[C@]1(COC)CCO2,-3.093,9.32
Cc1ccccc1OCCCC(=O)NC(C)c1nnc2n1CCC2 (configuration not stated),-25.06,21.01
Cc1ncc(C(=O)NCCNc2ncccc2C#N)s1,-33.12,11.68
CCSc1ccccc1C(=O)N1CCC(S(=O)(=O)c2nncn2C)CC1,-27.14,-2.254
CSC1=Nc2c(cnn2-c2ccccc2)C2=NCCCN12,-,0.2559
CC(NC(=O)NC1CCN(Cc2ccccn2)CC1)c1ccco1 (configuration not stated),-32.78,-6.54
Cc1cnn(CC2CCCN2C(=O)CCc2nc3ccccc3[nH]2)c1 (configuration not stated),10.4,-
N[C@@H]1c2ccccc2C2(CCN(C(=O)c3ccc(Cl)cn3)CC2)[C@H]1O,-7.814,2.02
C[C@@H]1C[C@H](C(F)(F)F)n2nc(C3CCN(C(=O)C(C)(C)C)CC3)cc2N1,12.89,0.75
O=C(CN1CCCC(c2ccn[nH]2)C1)Nc1nc2c(s1)CCC2 (configuration not stated),99.68,42.36
[H][C@@]12CCC(=O)N(CCCOC)[C@]1([H])CCN(Cc1ccc3occc3c1)C2,10.49,1.157
[H][C@@]12CCN(CC3CCOCC3)[C@]1([H])CC[C@@H](c1nnc(C)o1)O2,-2.765,-2.772
Cc1cnn(CC2CCCN2CC(=O)Nc2cc(C)on2)c1 (configuration not stated),-,-11.92
CCOc1ccc(C(=O)N2CCCC2c2c(C)nn(C)c2OC)cn1 (configuration not stated),-,10.85
CCCc1nc(N[C@H]2COC[C@@H]2N2CCCC2)c2cnn(C)c2n1,18.03,-11.39
COc1ncc(C(=O)N2CCCC3(C=Cc4ccccc4O3)CC2)cn1 (configuration not stated),-68.89,1.022
Cc1nc(NCC2CC2)nc2c1COCC21CCN(C)C1 (configuration not stated),26.78,-0.1664
OCCOc1ccccc1CN1CCCC(O)(CO)C1 (configuration not stated),-18.94,1.679
Cl.[H][C@@]12CN(C3CCCC3)CC[C@]1([H])N(C(=O)C1CCCC1)C[C@H]2c1ccsc1,-,-0.5168
O=C(O)C(F)(F)F.O=C(O)C(F)(F)F.c1ccc(O[C@@H]2CO[C@@]3(CCCN(CC4CCOCC4)C3)C2)nc1,-19.67,-2.631
CCN(CC)c1ncc2c(c1C(=O)O)CCN(C1CCOC1)C2.O=C(O)C(F)(F)F (configuration not stated),-56.68,1.888
Cc1cccc(CN2CCN(C(=O)[C@@H]3CSCN3C)CC2)c1,-23.98,1.386
CC(=O)NCC1CCN(C(=O)CCOc2ccc(C(C)C)cc2)CC1,14.19,-32.58
COCCN(Cc1ccco1)Cc1nc(-c2ccccc2)no1,-70.63,7.008
Cc1cc(NC(=O)NCc2ccc(C)s2)no1,-11.32,1.772
COC(=O)c1ccc(CN2CCC(c3noc(C)n3)CC2)s1,-2.821,-9.8
Cc1cc(N[C@H](CO)c2ccccc2)n2nc(C)cc2n1,-,-23.81
CC(C)Oc1ccc(C(=O)N2CCCCC2Cn2cccn2)cn1 (configuration not stated),-3.537,-4.851
CCC1CN(C(=O)c2csc(-c3cnn(C)c3)n2)CCO1 (configuration not stated),-21.87,2.676
Cc1[nH]nc(CCC(=O)NCC2CCN(C3CCCCC3)C2)c1C (configuration not stated),-5.416,4.95
Cc1cnn(CC2CN(Cc3csc(C(C)C)n3)CCO2)c1 (configuration not stated),-,23.16
CC(=O)Nc1nc(C(=O)N2CCCC2c2ccccc2C)cs1 (configuration not stated),9.95,1.482
CCN(CCN1CCCCCC1)C(=O)COc1cccnc1,-47.76,10.67
CC(=O)N1CCC(N2CCOC[C@H]2c2nc(-c3ccc(Cl)s3)c[nH]2)CC1,0.3235,-2.76
Cc1nc(C)n(CC2CN(CCCOc3ccccc3)CCO2)n1 (configuration not stated),-14.2,-29.68
Cc1oc(C(=O)O)cc1S(=O)(=O)Nc1cccc(-n2nccc2C)c1,5.885,-1.741
c1ccc(CCNC2CCc3ncnn3C2)nc1 (configuration not stated),0.687,2.002
[H][C@@]12CCN(C(C)=O)C[C@]1([H])CCN(C1CCCCC1)C(=O)C2,-1.75,17.12
CCNC(=O)CN1CCC(OCC2CCCO2)CC1 (configuration not stated),2.24,0.5682
O=C(NCCn1ccnc1)N1CCCC1c1ccncc1 (configuration not stated),6.454,-5.243
CO[C@H]1C[C@@H](O)C12CCN(C(=O)CCCOc1ccccc1)CC2,-13.96,-6.5
O=C(CCN1C(=O)CCC1=O)Nc1ccc(OCC(F)(F)F)nc1,-7.432,-
CN(C)S(=O)(=O)N1CCC(Oc2cccnn2)CC1,-23.04,5.19
CC(C)NC(=O)N1CCC2(CC1)CCn1c(C3CC3)cnc12,-63.69,0.9043
CCOc1cc(C(=O)N2CCCC(c3noc(C)n3)C2)ccc1OC (configuration not stated),-15.21,-3.966
CC(C)c1nnc2ccc(N3CCCC(C(=O)Nc4nccs4)C3)nn12 (configuration not stated),-31.38,-22.04
O=C(O)C(F)(F)F.[H][C@@]12OCCN(Cc3ccco3)[C@@]1([H])CC[C@H]2OCC1CCCC1,1.448,6.905
CC(C)N1CCC(C(=O)N2CCC(c3ccc(F)cc3)C2)CC1 (configuration not stated),7.977,-3.424
CC1=C[C@@H](CN2CCC(O)CC2)[C@H](C(C)C)C[C@H]1Cc1nnc(C)o1,45.36,-1.909
CCc1cnc(CN(C(C)=O)C2CCN(CCc3cccs3)C2)o1 (configuration not stated),-35.18,-6.089
CN1CCOC(CNCc2csc(C3CCCCC3)n2)C1 (configuration not stated),-,16.79
Cc1ccc2nc(CN(C)Cc3ccc(C)o3)cc(=O)n2c1,-321.5,-7.633
CN1CCOC(C)(C(=O)Nc2nc(C(C)(C)C)cs2)C1 (configuration not stated),-12.99,13.89
[H][C@@]1([C@H](C)C(=O)O)CCc2c(C)cc(OCCC)c(C)c2C1,-51.37,-2.107
CC(C)n1ccnc1C1CCCN(c2ncccc2C(N)=O)C1 (configuration not stated),16.9,6.122

The first 7 entries again:

{"smiles": "COc1cccc(C2CCCN2C(=O)c2ccc(=O)n(C)c2)c1", "stereo": "configuration not stated", "T. brucei": -0.5057, "Toxoplasma": 0.6351}
{"smiles": "CC(C)(O)CCc1cccc(C(=O)N2CCC[C@H]2C(N)=O)c1", "T. brucei": 2.338, "Toxoplasma": -9.8}
{"smiles": "[H][C@]12CC[C@@]3(N=C(CC)NC3=O)[C@@]1([H])CN(C(=O)NCc1cccc(F)c1)C2", "T. brucei": 34.17, "Toxoplasma": -3.235}
{"smiles": "Cc1c(CN2CCOCC2)c(O)n(CCO)c(=O)c1C#N", "T. brucei": -30.57, "Toxoplasma": 4.273}
{"smiles": "CC(=O)N1CCN([C@@H]2CN(C(=O)c3ccccc3)C[C@H]2O)CC1", "Toxoplasma": 14.08}
{"smiles": "CCc1cc(CNC(=O)Nc2cc(F)cc(N3CCCC3)c2)on1", "T. brucei": 22.12, "Toxoplasma": -3.845}
{"smiles": "NC(=O)Cn1nc(-c2ccccc2F)ccc1=O", "T. brucei": -54.23, "Toxoplasma": -22.49}